Results published in publication PMC6537140.
These are yes or no findings as the source states them, for the method shown. Binding seen in cells or lysates may run through a third protein. Tags and fused reporters may be left off the sequences shown. One block for each binder: values may come before it.

How the values were obtained:
[1] = target: T1, Ndc10p-YFP (S. cerevisiae) (UniProt P32504); test: FRET or BRET; FLIM-FRET in live diploid budding yeast in 96-well plates at room temperature (~24 °C); lifetime of the donor mTq2FP at kinetochore foci, image-wise monoexponential fit, compared with the donor-only strain of the same group; acceptor YFP; both fluorophores at the C-termini
T1 sequence: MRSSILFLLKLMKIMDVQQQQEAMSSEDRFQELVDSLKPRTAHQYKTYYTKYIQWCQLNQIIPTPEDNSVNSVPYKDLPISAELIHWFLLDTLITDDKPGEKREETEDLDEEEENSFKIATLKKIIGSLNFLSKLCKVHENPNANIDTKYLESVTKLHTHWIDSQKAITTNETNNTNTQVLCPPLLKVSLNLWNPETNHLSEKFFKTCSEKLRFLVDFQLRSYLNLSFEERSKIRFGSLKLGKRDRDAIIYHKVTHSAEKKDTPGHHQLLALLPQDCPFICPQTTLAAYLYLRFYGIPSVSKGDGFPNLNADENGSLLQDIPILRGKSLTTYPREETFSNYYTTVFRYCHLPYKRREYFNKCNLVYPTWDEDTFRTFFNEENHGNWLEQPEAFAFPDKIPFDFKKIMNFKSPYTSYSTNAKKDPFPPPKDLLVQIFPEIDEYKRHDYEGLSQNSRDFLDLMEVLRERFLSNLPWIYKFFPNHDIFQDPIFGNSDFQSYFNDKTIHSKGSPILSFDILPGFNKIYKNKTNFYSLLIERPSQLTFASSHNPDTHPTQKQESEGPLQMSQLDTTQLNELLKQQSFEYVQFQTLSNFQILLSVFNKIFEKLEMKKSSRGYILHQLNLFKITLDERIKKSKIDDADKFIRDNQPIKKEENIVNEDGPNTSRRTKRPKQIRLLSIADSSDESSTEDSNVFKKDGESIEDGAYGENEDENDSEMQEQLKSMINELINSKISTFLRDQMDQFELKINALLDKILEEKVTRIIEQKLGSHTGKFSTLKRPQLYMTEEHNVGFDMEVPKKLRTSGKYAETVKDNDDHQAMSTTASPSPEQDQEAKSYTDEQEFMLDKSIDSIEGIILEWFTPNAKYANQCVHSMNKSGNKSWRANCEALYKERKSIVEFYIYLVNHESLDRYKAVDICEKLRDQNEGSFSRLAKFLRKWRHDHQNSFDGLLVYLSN

[2] = target: Mtw1p stochastically tagged with both mTq2FP and YFP (S. cerevisiae) (UniProt P39731); test: as above

- binding [1]: no binding
B1: Ask1p-mTq2FP (protein, UniProt P35734 1-292)
chain: MDSASKEETLEKLDQEITVNLQKIDSNLSFCFHKITQDIIPHVATYSEICERIMDSTEWLGTMFQETGLVNLQANAAAPVGNAPVKSLVSNNVGIFPTSAEEASRQSQTDNGPNEADSAVHVNRDVHSMFNNDSIDDFHTANITSTGQILKLPDSSDEDTGSEAVPSREQTDLTGEGHGGADDEQDESTIQRQSRKRKISLLLQQQYGSSSSMVPSPIVPNKMRKQLAHEEHINNDGDNDDENSNNIESSPLKQGHHHPKGQADDNNEGPDEEESTKEVPKPGTIIHFSTNR

- binding [2]: no binding
B2: Mtw1p stochastically tagged with both mTq2FP and YFP (protein, UniProt P39731 1-289)
chain: MSAPTMRSTSILTEHLGYPPISLVDDIINAVNEIMYKCTAAMEKYLLSKSKIGEEDYGEEIKSGVAKLESLLENSVDKNFDKLELYVLRNVLRIPEEYLDANVFRLENQKDLVIVDENELKKSEEKLREKVNDVELAFKKNEMLLKRVTKVKRLLFTIRGFKQKLNELLKCKDDVQLQKILESLKPIDDTMTLLTDSLRKLYVDSESTSSTEEVEALLQRLKTNGKQNNKDFRTRYIDIRTNNVLRKLGLLGDKEDEKQSAKPDARTQAGDIVSIDIEEPQLDLLDDVL
